According to patent US5792457A, “Antibody recognizing endothelial cell ligand for leukocyte CR3” (priority 1995, dated 1998):
At least one read-out could not be matched to a standard name with certainty.

Tested on: neutrophil adherence to human umbilical vein endothelial cells (HUVEC)
Assay: Adherence of neutrophils to cultured (TNF alpha stimulated) endothelial cells
Type: cell-based
Conditions: neutrophils on huvec; read-out: concentration at which loss of activity (≤20% inhibition) occurred
Procedure: FIG. 17 is a bar graph representation of the inhibition of neutrophil adherence to activated endothelial cells by FHA, Factor X- and FHA- derived peptides. The concentration of inhibiting substances was: peptides 0.5 mM, native FHA 0.3 μM. Values represent the mean±standard deviation of 4 experiments with 5 wells/peptide.
FIG. 18 is a graphical representation of the FHA, FHA- or Factor X-peptide concentration effects on the inhibition of neutrophil adherence to activated endothelial cells. FHA peptide II monomer (Square) and trimer (Diamond), Factor X peptide II (Circle) at 10^-9 μM to 0.5 mM; native FHA at 10^-6 to 3×10^2 μM (triangle). Values represent the mean of 3 experiments with 5 wells/peptide (standard deviations <15%). […]
Human umbilical vein endothelial cells (HUVEC, first passage, Clonetics, San Diego, Calif.) were subcultured at confluence into Terasaki tissue culture wells. […] The number of adherent neutrophils was counted in a 40× microscope field and expressed as a percentage of adherence in control wells with neutrophils treated with HAP buffer alone. […]
The ability of FHA peptides and anti-CD18 or anti-Factor X receptor antibodies to interact cooperatively to inhibit neutrophil adherence to endothelial cells was assessed by measuring neutrophil adherence to endothelial cells in the presence of antibody as well as antibody plus peptide. […]

RGDPHQGVLAQGDIIMDAKG [FHA Ca] showed an IC20 of 1000 nM.
